# Patent US10577381B2, “Prodrugs of 2,4-pyrimidinediamine compounds and their uses” (Rigel Pharmaceuticals, Inc., priority 2005, dated 2020)
# At least one read-out could not be matched to a standard name with certainty.
# Test: Pharmacokinetics after IV and oral dosing in rats
# Format: in vivo, Sprague-Dawley rats
# Conditions: administered orally to test animals
# Experimental: Prodrug Compound 4 was tested for oral bioavailability. For the study, the prodrug was dissolved in various vehicles (e.g. PEG 400 solution and CMC suspension) for intravenous and oral dosing in the rats. […] Following administration of the prodrug and/or drug, plasma samples were obtained and extracted. The plasma concentrations of the prodrug and/or drug were determined by high performance liquid chromatography/tandem mass spectrometry (LC/MS/MS) methods. Pharmacokinetic analyses were performed based on the plasma concentration data. The pharmacokinetic parameters of interest include Clearance (CL), Volume of distribution at steady-state (Vss), terminal half-life (t1/2), and oral bioavailability (% F).
# Referring to FIG. 4, PK profiles are shown for IV and PO administration in Spraque-Dawley rats. For IV administration, Compound 4 was dissolved in PEG-400 and administered at a dose of 1 mg/kg.
# FIG. 5 summarizes the PK parameters for the study described in FIG. 4.
# FIG. 11 illustrates the absorption of prodrug Compound 4 from different vehicles.
compound,measurement,value
"COc1cc(Nc2ncc(F)c(Nc3ccc4c(n3)N(COP(=O)(O)O)C(=O)C(C)(C)O4)n2)cc(OC)c1OC [Compound 4, N4-(2,2-dimethyl-4-[(dihydrogenphosphonoxy)methyl]-3-oxo-5-pyrido[1,4]oxazin-6-yl)-5-fluoro-N2-(3,4,5-trimethoxyphenyl)-2,4-pyrimidinediamine]",oral bioavailability compared to active drug Compound 1,superior bioavailability
